Measurements reported in PubChem BioAssay AID540276 (National Center for Advancing Translational Sciences (NCATS), 2011).
About 5,400 (1.8%) of roughly 300,000 compounds were called active. The shares of active, inactive and inconclusive entries below differ from those in the screen. Calls follow the shape of the full dose curve; tested in HEK293 cells. Potencies beside an inconclusive call are fits to weak or partial responses and may not hold up.

Test: qHTS for inhibitors of binding or entry into cells for Marburg Virus
Conditions: Marburg virus pseudotyped entry inhibition, cell reporter; activity change, negative = inhibition: at 37.8 µM (top of the series) unless noted
% is scaled to controls: 0 for no effect and ±100 for the full control effect; potency is read from the fitted curve at half-maximal effect.

Row | Structure (SMILES) | Potency | activity change, negative = inhibition
1 | CC(=O)Nc1cc(N=Cc2ccc(O)cc2O)c(Cl)cc1Cl | inconclusive: 35.5 µM [inhibitor, single point] | –
2 | CC(Oc1ccc(Cl)cc1Cl)c1nc(-c2ccc(NC(=O)c3ccco3)cc2)no1 (stereo not given) | inconclusive: 29.1 µM [inhibitor, single point] | –
3 | Cc1ccc(C)c(Nc2cc(C)nc3ncnn23)c1 | – | inactive: -0.189%
4 | Cn1c(SCC(=O)Nc2cccnc2)nnc1-c1ccccc1F | inconclusive: 3.16 µM [inhibitor, single point] | –
5 | CC(C)(C)c1ccc(C(=O)Nc2cnccn2)cc1 | inconclusive: 11.6 µM [inhibitor, partial curve, poor fit] | –
6 | Cc1ccc(C(=O)Nc2ccc(N3CCN(C(=O)c4ccco4)CC3)cc2)c(Cl)c1 | – | inactive: -5.93% [at 46.1 µM]
7 | Cc1cc(NC(=O)c2sccc2C)n(-c2nc3ccccc3[nH]2)n1 | inconclusive: 25.1 µM [inhibitor, single point] | –
8 | C#CCOc1ccc2ccccc2c1/C=C(/C#N)c1ccc(C(=O)O)cc1 | inconclusive: 1.41 µM [inhibitor, partial curve, poor fit] | –
9 | COc1ccc(-n2c(Cc3cccn3C)nnc2SCC(=O)Nc2cccc(OC)c2)cc1 | inconclusive: 1.64 µM [inhibitor, partial curve, poor fit] | –
10 | O=C(Cc1ccccc1)Nc1ccc(NC(=O)c2ccccc2)nc1 | inconclusive: 6.31 µM [activator, single point] | –
11 | O=[N+]([O-])c1ccc(Oc2cccc(F)c2)c2ccncc12 | – | inactive: 4.36%
12 | CCCNC(=O)c1c(N)n(CC2CCCO2)c2nc3ccccc3nc12 (stereo not given) | inconclusive: 18.3 µM [inhibitor, partial curve, poor fit] | –
13 | CCN(CC)C(=O)c1sc(NC(=O)c2ccncc2)c(C(=O)OC)c1C | inconclusive: 0.058 µM [inhibitor, partial curve, poor fit] | –
14 | CSc1ccccc1NC(=O)COC(=O)CCc1ccccc1 | – | inactive: 5.93% [at 46.1 µM]
15 | CCOc1cccc(/C=C/c2ccc3cccc(O)c3n2)c1OC | inconclusive: 22.4 µM [inhibitor, partial curve, poor fit] | –
16 | CC(C)n1c(CN(C)Cc2ccccc2)nc2c1c(=O)n(C)c(=O)n2C | inconclusive: 2.82 µM [inhibitor, full curve] | –
17 | CC1CCC2(CC1)NC(=S)N(c1ccccc1)N2 (stereo not given) | inconclusive: 3.16 µM [inhibitor, single point] | –
18 | Cc1c(C(=O)C(=O)N2c3ccccc3CC2C)c2ccccc2n1C (stereo not given) | inconclusive: 10 µM [inhibitor, partial curve, poor fit] | –
19 | COc1cc(-c2cc(-c3ccccc3)nc(SCC(=O)Nc3nccs3)c2C#N)cc(OC)c1OC | – | inactive: -27.1%
20 | CCCCCSc1cc(OC)c(CCNC)cc1OC | inconclusive: 12.6 µM [inhibitor, single point] | –
21 | CCN(CC)CCN1C(=O)c2ccccc2NC1c1ccc(C)cc1 (stereo not given) | inconclusive: 14.6 µM [inhibitor, partial curve, poor fit] | –
22 | CCCCN1CNC(=S)N(CCc2ccccc2)C1 | inconclusive: 0.316 µM [inhibitor, partial curve, poor fit] | –
23 | Cc1ccc(C)c(C(C)NC(=S)NCc2ccc(F)cc2)c1 (stereo not given) | inconclusive: 35.5 µM [inhibitor, single point] | –

Copied from above, nos. 8–17
Row | Structure (SMILES) | Potency | activity change, negative = inhibition
8 | C#CCOc1ccc2ccccc2c1/C=C(/C#N)c1ccc(C(=O)O)cc1 | inconclusive: 1.41 µM [inhibitor, partial curve, poor fit] | –
9 | COc1ccc(-n2c(Cc3cccn3C)nnc2SCC(=O)Nc2cccc(OC)c2)cc1 | inconclusive: 1.64 µM [inhibitor, partial curve, poor fit] | –
10 | O=C(Cc1ccccc1)Nc1ccc(NC(=O)c2ccccc2)nc1 | inconclusive: 6.31 µM [activator, single point] | –
11 | O=[N+]([O-])c1ccc(Oc2cccc(F)c2)c2ccncc12 | – | inactive: 4.36%
12 | CCCNC(=O)c1c(N)n(CC2CCCO2)c2nc3ccccc3nc12 (stereo not given) | inconclusive: 18.3 µM [inhibitor, partial curve, poor fit] | –
13 | CCN(CC)C(=O)c1sc(NC(=O)c2ccncc2)c(C(=O)OC)c1C | inconclusive: 0.058 µM [inhibitor, partial curve, poor fit] | –
14 | CSc1ccccc1NC(=O)COC(=O)CCc1ccccc1 | – | inactive: 5.93% [at 46.1 µM]
15 | CCOc1cccc(/C=C/c2ccc3cccc(O)c3n2)c1OC | inconclusive: 22.4 µM [inhibitor, partial curve, poor fit] | –
16 | CC(C)n1c(CN(C)Cc2ccccc2)nc2c1c(=O)n(C)c(=O)n2C | inconclusive: 2.82 µM [inhibitor, full curve] | –
17 | CC1CCC2(CC1)NC(=S)N(c1ccccc1)N2 (stereo not given) | inconclusive: 3.16 µM [inhibitor, single point] | –

(continued)

Row | Structure (SMILES) | Potency | activity change, negative = inhibition
24 | O=C(/C=C/c1ccccc1)NC1CCS(=O)(=O)C1 (stereo not given) | inconclusive: 0.158 µM [inhibitor, full curve, poor fit] | –
25 | CCC(=O)N1CCc2cc(S(=O)(=O)N(CC)c3cccc(C)c3)ccc21 | inactive | –
26 | Cn1ccsc1=NC(=O)c1cccc(C#N)c1 | – | inactive: -9.99% [at 46.1 µM]
27 | COc1ccccc1CNC(=O)c1ccc2c(c1)N(Cc1ccc(C)cc1)CCS2 | inconclusive: 31.6 µM [inhibitor, partial curve, poor fit] | –
28 | O=C(CSc1nnc(-c2ccco2)o1)NC(=O)C1COc2ccccc2O1 (stereo not given) | – | inactive: 3.67%
29 | N#C/C(=C\c1ccccc1)C(=O)NNS(=O)(=O)c1cccc([N+](=O)[O-])c1 | – | inactive: -19.3%
30 | COC(=O)c1[nH]c(=O)c2ccccc2c1OCc1ccccc1 | – | inactive: -32.9%
31 | CS(=O)(=O)c1ccc(C(=O)OCc2nnc(-c3ccccc3)o2)cc1[N+](=O)[O-] | active: 3.16 µM | –
32 | CN1C(=O)C(C)(C)c2cc(S(=O)(=O)NCC3CCC(C(=O)NC4CCCCC4)CC3)ccc21 (stereo not given) | – | inactive: -0.282% [at 46.1 µM]
33 | Cn1c(CC(=O)Nc2ccccc2F)nnc1SCC(=O)N1CCOCC1 | – | inactive: 6.42%
34 | COc1ccc(OC2OC3COC(c4ccco4)OC3C(O)C2NC(C)=O)cc1 (stereo not given) | inconclusive: 3.16 µM [activator, single point] | –
35 | CCOc1ccccc1N1CC(c2nc3ccccc3n2CCCCOc2cc(C)ccc2C)CC1=O (stereo not given) | inconclusive: 11.2 µM [inhibitor, partial curve, poor fit] | –
36 | COc1ccc(C(=O)Nc2nnc(S(=O)(=O)Cc3ccccc3)s2)cc1 | – | inactive: -4.92% [at 46.1 µM]
37 | CCOc1ccc(/C=N/OCC(=O)Nc2cc(C)on2)cc1 | inconclusive: 5.62 µM [inhibitor, partial curve, poor fit] | –
38 | CN(Cc1cccs1)C(=O)/C=C/c1ccccc1[N+](=O)[O-] | – | inactive: 8.68% [at 46.1 µM]
39 | CCCCOc1ccc(CN2C(=O)C(=O)c3cc(C)ccc32)cc1OC | inconclusive: 15.8 µM [inhibitor, single point] | –
40 | C/C(=N\NC(=O)c1cccnc1)c1ccccc1 | inconclusive: 1.58 µM [activator, partial curve, poor fit] | –
41 | Cc1cc(C)nc(NC(=O)c2cccc([N+](=O)[O-])c2C)n1 | inconclusive: 6.31 µM [activator, single point] | –
42 | COc1ccc(Cc2nnc(NC(=O)Cc3cccs3)s2)cc1OC | inconclusive: 5.01 µM [activator, full curve, poor fit] | –
43 | CC(OC(=O)CC1CCCC1)C(=O)Nc1ccc(Cl)cn1 (stereo not given) | inconclusive: 7.08 µM [activator, partial curve, poor fit] | –
44 | O=C(NCc1ccco1)C1CCCCC1 | – | inactive: -5.63%
45 | COc1cc(NC(=O)CSc2ncnc3sc4c(c23)CCCC4)c(C(=O)O)cc1OC | – | inactive: 6.81% [at 46.1 µM]
